Results are given in words; binding and its absence hold for the method and conditions named. In cells and extracts the contact can be indirect. Some binding calls cover weakened binding; strength is not graded here.

Sequences of proteins named here, by UniProt entry; tags and fusion partners are left off. Residues count along the entry.
UniProt P19785, residues 313-599: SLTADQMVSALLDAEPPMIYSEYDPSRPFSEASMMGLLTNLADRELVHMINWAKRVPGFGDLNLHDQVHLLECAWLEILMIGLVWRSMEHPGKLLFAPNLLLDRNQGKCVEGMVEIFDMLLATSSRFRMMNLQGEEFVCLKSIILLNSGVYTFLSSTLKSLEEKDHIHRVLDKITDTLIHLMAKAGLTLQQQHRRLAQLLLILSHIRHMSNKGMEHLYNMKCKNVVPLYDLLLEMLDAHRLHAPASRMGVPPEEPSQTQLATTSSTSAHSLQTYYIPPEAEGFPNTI
UniProt Q15788: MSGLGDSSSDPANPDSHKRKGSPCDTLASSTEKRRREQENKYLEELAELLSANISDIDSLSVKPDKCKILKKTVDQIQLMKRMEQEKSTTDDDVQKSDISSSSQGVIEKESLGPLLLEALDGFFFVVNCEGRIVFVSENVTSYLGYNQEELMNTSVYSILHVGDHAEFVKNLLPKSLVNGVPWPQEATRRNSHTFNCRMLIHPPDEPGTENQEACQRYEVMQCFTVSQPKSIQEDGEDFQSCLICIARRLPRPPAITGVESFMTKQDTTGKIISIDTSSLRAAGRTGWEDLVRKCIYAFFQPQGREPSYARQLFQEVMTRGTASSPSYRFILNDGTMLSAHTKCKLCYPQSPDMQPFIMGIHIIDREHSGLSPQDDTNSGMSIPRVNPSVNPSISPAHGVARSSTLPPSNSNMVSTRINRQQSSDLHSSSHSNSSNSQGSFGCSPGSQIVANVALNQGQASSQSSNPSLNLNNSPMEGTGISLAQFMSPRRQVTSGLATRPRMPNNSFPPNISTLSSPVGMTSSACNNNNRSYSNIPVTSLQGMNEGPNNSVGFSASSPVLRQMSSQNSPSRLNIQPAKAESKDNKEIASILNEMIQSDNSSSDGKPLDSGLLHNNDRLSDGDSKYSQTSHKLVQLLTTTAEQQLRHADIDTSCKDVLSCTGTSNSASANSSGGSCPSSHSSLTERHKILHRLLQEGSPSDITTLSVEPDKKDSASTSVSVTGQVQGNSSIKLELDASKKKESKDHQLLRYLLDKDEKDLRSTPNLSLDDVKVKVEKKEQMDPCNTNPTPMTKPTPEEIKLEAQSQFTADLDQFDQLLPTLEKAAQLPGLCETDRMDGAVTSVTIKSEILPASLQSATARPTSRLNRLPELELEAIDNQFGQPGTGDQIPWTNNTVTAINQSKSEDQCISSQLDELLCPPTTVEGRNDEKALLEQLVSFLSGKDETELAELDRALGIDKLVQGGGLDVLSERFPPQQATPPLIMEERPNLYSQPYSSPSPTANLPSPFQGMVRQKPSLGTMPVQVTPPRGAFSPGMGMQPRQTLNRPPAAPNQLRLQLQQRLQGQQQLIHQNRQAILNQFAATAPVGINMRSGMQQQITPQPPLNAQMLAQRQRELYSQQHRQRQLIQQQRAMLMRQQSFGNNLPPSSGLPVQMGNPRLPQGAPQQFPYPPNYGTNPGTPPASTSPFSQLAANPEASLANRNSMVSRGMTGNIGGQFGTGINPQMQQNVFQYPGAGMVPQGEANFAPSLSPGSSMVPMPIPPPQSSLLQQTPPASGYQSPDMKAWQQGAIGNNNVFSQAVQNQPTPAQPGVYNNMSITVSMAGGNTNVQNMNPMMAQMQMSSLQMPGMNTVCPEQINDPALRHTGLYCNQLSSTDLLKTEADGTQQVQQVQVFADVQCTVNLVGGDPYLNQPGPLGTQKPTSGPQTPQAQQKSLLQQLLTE

This assay deals with GST-AF2 (ligand binding domain of the mouse estrogen receptor fused to glutathione-S-transferase) (mouse) (UniProt P19785). As to the kind of experiment: GST pulldown of [35S]-labelled in vitro translated protein, +/- 10^-6 M E2.

Consider “wild type SRC1a (human, in vitro translated) (from UniProt Q15788 1-1441)”, for which the binding entry was “binds”.

The record behind these values is patent EP0980526B1, “INHIBITORS OF NUCLEAR PROTEIN/NUCLEAR RECEPTOR INTERACTION” (IMPERIAL CANCER RESEARCH TECHNOLOGY LIMITED, priority 1997, dated 1998).
